Experimental data from article PMC11891296, “Mechanical forces and ligand binding modulate Pseudomonas aeruginosa PilY1 mechanosensitive protein” (Life Science Alliance, 2025).
These are yes or no findings as the source states them, for the method shown.

Chains of the proteins cited; added tags and fusions are not shown. Lines headed by an entry give the natural chain unless they say otherwise; changes in a name come on top.
UniProt P06756: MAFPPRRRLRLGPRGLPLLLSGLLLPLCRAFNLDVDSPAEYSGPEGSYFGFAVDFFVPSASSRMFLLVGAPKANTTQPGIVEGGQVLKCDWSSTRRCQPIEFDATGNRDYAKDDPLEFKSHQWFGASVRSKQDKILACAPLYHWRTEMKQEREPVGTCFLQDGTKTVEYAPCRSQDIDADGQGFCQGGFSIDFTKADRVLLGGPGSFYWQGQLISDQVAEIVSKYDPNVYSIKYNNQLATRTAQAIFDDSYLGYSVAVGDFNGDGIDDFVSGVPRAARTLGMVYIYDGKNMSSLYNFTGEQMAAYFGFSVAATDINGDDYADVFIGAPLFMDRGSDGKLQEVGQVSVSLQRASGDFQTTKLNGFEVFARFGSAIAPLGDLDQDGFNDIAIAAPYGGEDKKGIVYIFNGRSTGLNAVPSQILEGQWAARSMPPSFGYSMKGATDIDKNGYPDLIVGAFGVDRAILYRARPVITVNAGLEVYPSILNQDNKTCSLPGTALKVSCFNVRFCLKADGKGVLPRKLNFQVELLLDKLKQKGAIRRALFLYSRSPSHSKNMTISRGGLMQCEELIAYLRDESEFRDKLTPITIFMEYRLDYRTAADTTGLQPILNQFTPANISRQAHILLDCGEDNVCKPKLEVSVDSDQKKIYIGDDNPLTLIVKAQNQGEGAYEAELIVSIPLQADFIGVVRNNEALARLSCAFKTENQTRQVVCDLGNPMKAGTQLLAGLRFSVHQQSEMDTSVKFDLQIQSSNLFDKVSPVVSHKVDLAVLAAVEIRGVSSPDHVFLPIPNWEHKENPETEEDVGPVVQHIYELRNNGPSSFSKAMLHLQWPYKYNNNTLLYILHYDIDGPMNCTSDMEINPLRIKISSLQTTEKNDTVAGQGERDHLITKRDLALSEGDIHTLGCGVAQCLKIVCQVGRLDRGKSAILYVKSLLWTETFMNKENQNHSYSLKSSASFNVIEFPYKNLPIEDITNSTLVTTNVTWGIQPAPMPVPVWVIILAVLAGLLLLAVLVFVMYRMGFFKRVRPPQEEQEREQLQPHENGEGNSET

Target: PilY1^642−1161 chimeric polyprotein (HaloTag-(I32)2-PilY1 residues 642-1161-(I32)2-HisTag-AviTag) (P. aeruginosa PAO1) (UniProt Q9HVM8)
Test: single-molecule magnetic tweezers; PilY1^642-1161 tethered; 800 nM integrin; cycles of unfolding at 40 pN, quench to 5.0 pN for 50-2,000 s, unfolding again at 40 pN; binding looked for as a change in the final unfolded extension; both purified

Substance: recombinant αVβ5 human integrin extracellular domains (from UniProt P06756 31-992; P18084 24-719) (complex)
- binding: no binding (tested: 800 nM)
